Data as given in publication PMC8998617.
These are yes or no findings as the source states them, for the method shown.

Protein sequences, listed by entry. Tags and fused reporters are not part of them. Residues count along the entry.
UniProt P52948, residues 1-498: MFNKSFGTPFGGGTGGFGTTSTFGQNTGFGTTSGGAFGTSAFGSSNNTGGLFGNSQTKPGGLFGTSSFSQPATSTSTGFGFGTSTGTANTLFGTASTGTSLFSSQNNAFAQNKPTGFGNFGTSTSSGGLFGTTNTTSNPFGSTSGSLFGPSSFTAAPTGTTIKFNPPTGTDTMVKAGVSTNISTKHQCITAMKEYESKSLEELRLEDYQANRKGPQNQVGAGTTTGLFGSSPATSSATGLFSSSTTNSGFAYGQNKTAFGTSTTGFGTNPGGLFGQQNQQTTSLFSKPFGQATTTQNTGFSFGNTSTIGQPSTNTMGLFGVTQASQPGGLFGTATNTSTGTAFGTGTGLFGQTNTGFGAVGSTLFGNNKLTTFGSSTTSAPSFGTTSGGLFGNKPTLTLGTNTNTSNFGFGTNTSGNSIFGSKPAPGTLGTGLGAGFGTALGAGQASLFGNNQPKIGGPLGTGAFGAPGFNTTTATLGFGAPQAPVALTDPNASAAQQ
UniProt P02769, residues 25-607: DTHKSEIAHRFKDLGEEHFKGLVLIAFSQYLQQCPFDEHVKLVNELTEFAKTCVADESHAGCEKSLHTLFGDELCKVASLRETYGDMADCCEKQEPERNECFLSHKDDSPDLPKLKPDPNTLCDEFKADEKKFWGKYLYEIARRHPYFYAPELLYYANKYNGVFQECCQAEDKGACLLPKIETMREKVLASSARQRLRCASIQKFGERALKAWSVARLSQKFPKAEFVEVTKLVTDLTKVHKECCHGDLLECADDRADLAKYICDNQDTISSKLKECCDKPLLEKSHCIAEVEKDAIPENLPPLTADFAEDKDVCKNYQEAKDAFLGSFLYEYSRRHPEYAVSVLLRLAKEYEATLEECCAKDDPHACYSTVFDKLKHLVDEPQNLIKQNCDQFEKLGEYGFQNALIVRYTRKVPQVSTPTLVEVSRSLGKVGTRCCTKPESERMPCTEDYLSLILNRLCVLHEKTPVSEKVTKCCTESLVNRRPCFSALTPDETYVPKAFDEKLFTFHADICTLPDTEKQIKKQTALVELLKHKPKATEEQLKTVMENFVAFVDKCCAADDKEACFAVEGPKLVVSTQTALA

Molecular target: Nup98-FG (N-terminal FG-domain of Nup98, aa 1-498) with one additional N-terminal cysteine, tethered to the SPR gold chip (UniProt P52948)
Test: SPR; Biacore T200; Nup98-FG or Nup98-FG/FS tethered by its N-terminal cysteine to the gold sensor chip; Tau proteins injected at increasing concentrations in PBS; BSA injected after each Tau injection; equilibrium constants from one- or two-component Langmuir fits; both purified

bovine serum albumin (BSA) (from UniProt P02769 25-607)
binding: no binding
